Values of other authors, collected in patent US10406098B2, “Injection solution comprising a non-nucleoside reverse-transcriptase inhibitor and poly(lactide-co-glycolide)” (Evonik Roehm GmbH, priority 2015, dated 2019).
At least one compound was matched to its structure with a doubt left.

Conditions: 2% by weight in poly(D,L-lactic acid)/NMP 68:32 solution; cited from earlier work

C[n+]1cc2c3c(ccc2c2ccc4cc5c(cc4c21)OCO5)OCO3 [Sanguinarine]
drug released in the first day: 60%
